Assay results: paper doi:10.1101/368704
Where two headings read alike, the source gives them in different places. No constants are given. Whether binding was seen depends on the method and setting. Some entries that bind do so weakly or less than the wild type. Tags and fused reporters may be left off the sequences shown. Each block holds one molecule with its values, some of them ahead of it.

Sequences of proteins named here, by UniProt entry; tags and fusion partners are left off.
UniProt P93830: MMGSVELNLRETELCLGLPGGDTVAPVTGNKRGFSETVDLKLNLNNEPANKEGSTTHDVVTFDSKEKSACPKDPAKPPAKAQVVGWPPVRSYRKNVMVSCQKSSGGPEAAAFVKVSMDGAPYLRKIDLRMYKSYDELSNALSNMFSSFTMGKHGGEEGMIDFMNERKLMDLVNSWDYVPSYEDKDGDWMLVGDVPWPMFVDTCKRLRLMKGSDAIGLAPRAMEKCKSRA

Tests used:
[1] = biological target: T1, TOPLESS amino-terminal region (AA 1-188; TPL-N), bait fused to the GAL4 DBD (A. thaliana) (UniProt Q94AI7); assay: two-hybrid
T1 sequence: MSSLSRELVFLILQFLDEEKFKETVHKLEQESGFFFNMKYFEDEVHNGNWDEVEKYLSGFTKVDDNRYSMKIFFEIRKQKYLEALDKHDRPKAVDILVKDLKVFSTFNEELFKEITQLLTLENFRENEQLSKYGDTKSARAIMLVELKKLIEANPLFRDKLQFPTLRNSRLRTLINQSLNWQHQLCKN

[2] = biological target: T1, TOPLESS amino-terminal region (AA 1-188; TPL-N), bait fused to the GAL4 DBD (A. thaliana); assay: two-hybrid; remark: listed apart in the source

binding [1]: binds
Molecule: auxin/indole-3-acetic acid 17 (IAA17), control prey fused to the GAL4 AD (from UniProt P93830 1-229)

binding [2]: no binding
B1: ATCKA2 (AT3G50000), prey of the binary Y2H fused to the GAL4 AD (protein, UniProt Q08466 1-403)
chain: MHLIFFFSYFLRRYLLLLCAILILRAPLAHSLIPPLTCVNTGTVESDVTGIRFDRCLDTDSLAKISLSTVMSKARVYTDVNVIRPKDYWDYESLNVQWGEQDDYEVVRKVGRGKYSEVFEGINMNNNEKCIIKILKPVKKKKIRREIKILQNLCGGPNIVKLLDVVRDQHSKTPSLIFEYVNSTDFKVLYPTLTDYDIRYYIYELLKALDFCHSQGIMHRDVKPHNVMIDHELRKLRLIDWGLAEFYHPGKEYNVRVASRYFKGPELLVDLQDYDYSLDMWSLGCMFAGMIFRKEPFFYGHDNQDQLVKIAKVLGTDELNAYLNKYQLELDTQLEALVGRHSRKPWSKFINADNRHLVSPEAIDYLDKLLRYDHQDRLTAKEAMAHPYFAQVRAAESSRMRTQ

binding [2]: binds
B2: bHLH TF AT3G19860, prey of the binary Y2H fused to the GAL4 AD (protein, UniProt Q9LT23 1-337)
chain: MGIRENGIMLVSRERERARRLENRESIFAEPPCLLLAHRISPSPSILPAEEEVMDVSARKSQKAGREKLRREKLNEHFVELGNVLDPERPKNDKATILTDTVQLLKELTSEVNKLKSEYTALTDESRELTQEKNDLREEKTSLKSDIENLNLQYQQRLRSMSPWGAAMDHTVMMAPPPSFPYPMPIAMPPGSIPMHPSMPSYTYFGNQNPSMIPAPCPTYMPYMPPNTVVEQQSVHIPQNPGNRSREPRAKVSRESRSEKAEDSNEVATQLELKTPGSTSDKDTLQRPEKTKRCKRNNNNNSIEESSHSSKCSSSPSVRDHSSSSSVAGGQKPDDAK
